Experimental data published in article PMC2848000.
No constants are given. Whether binding was seen depends on the method and setting. In cells and extracts the contact can be indirect. Some results given as binding are weak or reduced against the parent protein; the word gives no strength. One block for each molecule: values may come before it.

Sequences of proteins named here, by UniProt entry; tags and fusion partners are left off. A change or cut given only in a name is not applied to a line headed by its entry.
UniProt Q9Y5B9: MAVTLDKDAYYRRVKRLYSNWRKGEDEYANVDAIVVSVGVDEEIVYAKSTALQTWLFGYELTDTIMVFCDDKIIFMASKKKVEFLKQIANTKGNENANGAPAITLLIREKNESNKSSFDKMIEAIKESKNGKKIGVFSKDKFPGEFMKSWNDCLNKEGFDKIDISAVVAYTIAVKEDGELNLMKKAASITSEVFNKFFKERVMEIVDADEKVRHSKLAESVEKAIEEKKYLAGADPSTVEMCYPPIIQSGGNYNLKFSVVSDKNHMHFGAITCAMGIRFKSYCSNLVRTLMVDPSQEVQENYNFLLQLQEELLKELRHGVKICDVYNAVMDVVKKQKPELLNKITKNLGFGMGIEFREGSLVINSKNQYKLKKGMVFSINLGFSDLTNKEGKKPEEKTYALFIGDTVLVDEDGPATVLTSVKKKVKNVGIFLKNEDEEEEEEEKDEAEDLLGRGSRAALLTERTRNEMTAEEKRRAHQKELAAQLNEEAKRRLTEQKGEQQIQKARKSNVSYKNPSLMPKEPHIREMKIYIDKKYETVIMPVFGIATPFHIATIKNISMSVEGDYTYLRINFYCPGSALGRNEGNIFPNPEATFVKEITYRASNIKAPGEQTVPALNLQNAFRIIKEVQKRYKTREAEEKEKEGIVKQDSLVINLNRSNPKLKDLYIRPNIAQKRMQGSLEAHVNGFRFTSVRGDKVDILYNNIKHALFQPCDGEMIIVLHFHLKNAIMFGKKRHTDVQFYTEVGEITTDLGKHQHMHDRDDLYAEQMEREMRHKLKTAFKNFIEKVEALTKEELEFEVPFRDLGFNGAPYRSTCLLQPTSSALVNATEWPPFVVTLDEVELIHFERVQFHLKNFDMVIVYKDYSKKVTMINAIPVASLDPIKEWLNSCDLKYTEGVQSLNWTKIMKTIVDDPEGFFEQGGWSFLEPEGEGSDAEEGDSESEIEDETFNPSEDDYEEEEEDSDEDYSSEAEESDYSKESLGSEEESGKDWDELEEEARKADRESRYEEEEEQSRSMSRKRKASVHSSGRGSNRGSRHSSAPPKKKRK
UniProt Q08945: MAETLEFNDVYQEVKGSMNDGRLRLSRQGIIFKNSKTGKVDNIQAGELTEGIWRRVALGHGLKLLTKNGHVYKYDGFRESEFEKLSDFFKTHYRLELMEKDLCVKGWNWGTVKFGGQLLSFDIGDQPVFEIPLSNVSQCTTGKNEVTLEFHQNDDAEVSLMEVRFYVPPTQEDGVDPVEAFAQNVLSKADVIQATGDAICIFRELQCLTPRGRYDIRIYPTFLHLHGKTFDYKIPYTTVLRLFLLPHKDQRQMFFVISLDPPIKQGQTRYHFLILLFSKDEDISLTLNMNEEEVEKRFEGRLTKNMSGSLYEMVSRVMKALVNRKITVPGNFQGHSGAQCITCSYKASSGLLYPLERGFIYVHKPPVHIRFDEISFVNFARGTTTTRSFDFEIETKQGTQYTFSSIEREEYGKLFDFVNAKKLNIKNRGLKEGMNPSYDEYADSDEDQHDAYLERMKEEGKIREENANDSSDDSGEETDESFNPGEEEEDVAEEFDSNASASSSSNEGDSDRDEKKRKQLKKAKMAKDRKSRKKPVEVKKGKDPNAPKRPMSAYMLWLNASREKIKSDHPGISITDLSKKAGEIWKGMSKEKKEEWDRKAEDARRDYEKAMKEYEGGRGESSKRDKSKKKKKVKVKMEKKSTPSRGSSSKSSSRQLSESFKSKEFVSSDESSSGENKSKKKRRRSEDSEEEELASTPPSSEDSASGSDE
UniProt P49736: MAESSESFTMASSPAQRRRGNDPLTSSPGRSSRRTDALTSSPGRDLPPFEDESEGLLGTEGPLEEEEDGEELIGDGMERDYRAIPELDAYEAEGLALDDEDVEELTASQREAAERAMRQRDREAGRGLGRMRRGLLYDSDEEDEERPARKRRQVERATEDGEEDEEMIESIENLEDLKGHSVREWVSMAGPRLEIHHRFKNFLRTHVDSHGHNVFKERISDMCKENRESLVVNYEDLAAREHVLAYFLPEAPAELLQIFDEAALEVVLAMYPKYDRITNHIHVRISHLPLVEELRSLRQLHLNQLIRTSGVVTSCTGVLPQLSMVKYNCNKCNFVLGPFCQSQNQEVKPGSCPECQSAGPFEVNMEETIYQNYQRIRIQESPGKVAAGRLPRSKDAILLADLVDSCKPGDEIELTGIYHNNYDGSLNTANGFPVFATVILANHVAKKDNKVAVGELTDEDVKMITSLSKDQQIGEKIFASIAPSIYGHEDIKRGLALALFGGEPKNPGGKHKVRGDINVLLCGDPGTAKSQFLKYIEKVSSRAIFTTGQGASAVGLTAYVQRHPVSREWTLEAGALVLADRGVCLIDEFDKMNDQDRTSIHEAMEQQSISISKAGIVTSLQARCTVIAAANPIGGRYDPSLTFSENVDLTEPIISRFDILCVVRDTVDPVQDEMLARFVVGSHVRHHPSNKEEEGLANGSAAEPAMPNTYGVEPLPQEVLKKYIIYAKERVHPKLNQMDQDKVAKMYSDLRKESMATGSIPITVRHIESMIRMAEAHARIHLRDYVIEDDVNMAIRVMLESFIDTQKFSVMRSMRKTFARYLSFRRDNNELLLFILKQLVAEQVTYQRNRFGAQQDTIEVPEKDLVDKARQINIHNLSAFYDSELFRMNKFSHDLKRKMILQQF

Columns and labels:
[1] = biological target: T1, FACT heterodimeric complex (hSpt16p and SSRP1) (human (endogenous in HeLa and K562)) (UniProt Q9Y5B9+Q08945); test: co-IP; HeLa nuclear extracts fractionated by gel filtration on Sephacryl S-400; selected fractions immunoprecipitated with anti-hSpt16p mAb 8D2; Western blot
[2] = biological target: T1, FACT heterodimeric complex (hSpt16p and SSRP1) (human (endogenous in HeLa and K562)); test: co-IP; HeLa whole cell extracts and nuclear extracts; FACT precipitated with anti-hSpt16p mAb 8D2 prebound to protein G-Sepharose, washed in the cell lysis buffer; Western blot with pan-MCM or individual antibodies
[3] = biological target: T1, FACT heterodimeric complex (hSpt16p and SSRP1) (human (endogenous in HeLa and K562)); test: co-IP; HeLa nuclear extracts fractionated by gel filtration on Sephacryl S-400; selected fractions immunoprecipitated with anti-SSRP1 mAb 10D1; Western blot
[4] = biological target: T1, FACT heterodimeric complex (hSpt16p and SSRP1) (human (endogenous in HeLa and K562)); test: co-IP; HeLa whole cell extracts and nuclear extracts (exponentially growing or synchronised cells); FACT precipitated with anti-SSRP1 mAb 10D1 prebound to protein G-Sepharose, washed in the cell lysis buffer; Western blot with pan-MCM or individual antibodies
[5] = biological target: T1, FACT heterodimeric complex (hSpt16p and SSRP1) (human (endogenous in HeLa and K562)); test: as above; remark: listed apart in the source
[6] = biological target: T1, FACT heterodimeric complex (hSpt16p and SSRP1) (human (endogenous in HeLa and K562)); test: co-IP; HeLa whole cell extracts and nuclear extracts; FACT precipitated with anti-hSpt16p mAb 8D2 prebound to protein G-Sepharose, washed in the cell lysis buffer; Western blot with pan-MCM or individual antibodies; remark: listed apart in the source

Molecule: MCM2 (from UniProt P49736 1-904)
- binding [1]: binds
- binding [2]: binds
- binding [3]: binds
- binding [4]: binds

B1: Cdc6 (protein, UniProt Q99741 1-560)
chain: MPQTRSQAQATISFPKRKLSRALNKAKNSSDAKLEPTNVQTVTCSPRVKALPLSPRKRLGDDNLCNTPHLPPCSPPKQGKKENGPPHSHTLKGRRLVFDNQLTIKSPSKRELAKVHQNKILSSVRKSQEITTNSEQRCPLKKESACVRLFKQEGTCYQQAKLVLNTAVPDRLPAREREMDVIRNFLREHICGKKAGSLYLSGAPGTGKTACLSRILQDLKKELKGFKTIMLNCMSLRTAQAVFPAIAQEICQEEVSRPAGKDMMRKLEKHMTAEKGPMIVLVLDEMDQLDSKGQDVLYTLFEWPWLSNSHLVLIGIANTLDLTDRILPRLQAREKCKPQLLNFPPYTRNQIVTILQDRLNQVSRDQVLDNAAVQFCARKVSAVSGDVRKALDVCRRAIEIVESDVKSQTILKPLSECKSPSEPLIPKRVGLIHISQVISEVDGNRMTLSQEGAQDSFPLQQKILVCSLMLLIRQLKIKEVTLGKLYEAYSKVCRKQQVAAVDQSECLSLSGLLEARGILGLKRNKETRLTKVFFKIEEKEIEHALKDKALIGNILATGLP
- binding [5]: binds weakly
- binding [6]: binds

B4: Cdc45 (protein, UniProt O75419 1-566)
chain: MFVSDFRKEFYEVVQSQRVLLFVASDVDALCACKILQALFQCDHVQYTLVPVSGWQELETAFLEHKEQFHYFILINCGANVDLLDILQPDEDTIFFVCDTHRPVNVVNVYNDTQIKLLIKQDDDLEVPAYEDIFRDEEEDEEHSGNDSDGSEPSEKRTRLEEEIVEQTMRRRQRREWEARRRDILFDYEQYEYHGTSSAMVMFELAWMLSKDLNDMLWWAIVGLTDQWVQDKITQMKYVTDVGVLQRHVSRHNHRNEDEENTLSVDCTRISFEYDLRLVLYQHWSLHDSLCNTSYTAARFKLWSVHGQKRLQEFLADMGLPLKQVKQKFQAMDISLKENLREMIEESANKFGMKDMRVQTFSIHFGFKHKFLASDVVFATMSLMESPEKDGSGTDHFIQALDSLSRSNLDKLYHGLELAKKQLRATQQTIASCLCTNLVISQGPFLYCSLMEGTPDVMLFSRPASLSLLSKHLLKSFVCSTKNRRCKLLPLVMAAPLSMEHGTVTVVGIPPETDSSDRKNFFGRAFEKAAESTSSRMLHNHFDLSVIELKAEDRSKFLDALISLLS
- binding [5]: binds
- binding [6]: binds

The next lines start with the values.

- binding [1]: binds
- binding [6]: binds
B2: MCM3 (protein, UniProt P25205 1-808)
chain: MAGTVVLDDVELREAQRDYLDFLDDEEDQGIYQSKVRELISDNQYRLIVNVNDLRRKNEKRANRLLNNAFEELVAFQRALKDFVASIDATYAKQYEEFYVGLEGSFGSKHVSPRTLTSCFLSCVVCVEGIVTKCSLVRPKVVRSVHYCPATKKTIERRYSDLTTLVAFPSSSVYPTKDEENNPLETEYGLSVYKDHQTITIQEMPEKAPAGQLPRSVDVILDDDLVDKAKPGDRVQVVGTYRCLPGKKGGYTSGTFRTVLIACNVKQMSKDAQPSFSAEDIAKIKKFSKTRSKDIFDQLAKSLAPSIHGHDYVKKAILCLLLGGVERDLENGSHIRGDINILLIGDPSVAKSQLLRYVLCTAPRAIPTTGRGSSGVGLTAAVTTDQETGERRLEAGAMVLADRGVVCIDEFDKMSDMDRTAIHEVMEQGRVTIAKAGIHARLNARCSVLAAANPVYGRYDQYKTPMENIGLQDSLLSRFDLLFIMLDQMDPEQDREISDHVLRMHRYRAPGEQDGDAMPLGSAVDILATDDPNFSQEDQQDTQIYEKHDNLLHGTKKKKEKMVSAAFMKKYIHVAKIIKPVLTQESATYIAEEYSRLRSQDSMSSDTARTSPVTARTLETLIRLATAHAKARMSKTVDLQDAEEAVELVQYAYFKKVLEKEKKRKKRSEDESETEDEEEKSQEDQEQKRKRRKTRQPDAKDGDSYDPYDFSDTEEEMPQVHTPKTADSQETKESQKVELSESRLKAFKVALLDVFREAHAQSIGMNRLTESINRDSEEPFSSVEIQAALSKMQDDNQVMVSEGIIFLI

- binding [1]: binds
- binding [6]: binds
B3: MCM5 (protein, UniProt P33992 1-734)
chain: MSGFDDPGIFYSDSFGGDAQADEGQARKSQLQRRFKEFLRQYRVGTDRTGFTFKYRDELKRHYNLGEYWIEVEMEDLASFDEDLADYLYKQPAEHLQLLEEAAKEVADEVTRPRPSGEEVLQDIQVMLKSDASPSSIRSLKSDMMSHLVKIPGIIIAASAVRAKATRISIQCRSCRNTLTNIAMRPGLEGYALPRKCNTDQAGRPKCPLDPYFIMPDKCKCVDFQTLKLQELPDAVPHGEMPRHMQLYCDRYLCDKVVPGNRVTIMGIYSIKKFGLTTSRGRDRVGVGIRSSYIRVLGIQVDTDGSGRSFAGAVSPQEEEEFRRLAALPNVYEVISKSIAPSIFGGTDMKKAIACLLFGGSRKRLPDGLTRRGDINLLMLGDPGTAKSQLLKFVEKCSPIGVYTSGKGSSAAGLTASVMRDPSSRNFIMEGGAMVLADGGVVCIDEFDKMREDDRVAIHEAMEQQTISIAKAGITTTLNSRCSVLAAANSVFGRWDETKGEDNIDFMPTILSRFDMIFIVKDEHNEERDVMLAKHVITLHVSALTQTQAVEGEIDLAKLKKFIAYCRVKCGPRLSAEAAEKLKNRYIIMRSGARQHERDSDRRSSIPITVRQLEAIVRIAEALSKMKLQPFATEADVEEALRLFQVSTLDAALSGTLSGVEGFTSQEDQEMLSRIEKQLKRRFAIGSQVSEHSIIKDFTKQKYPEHAIHKVLQLMLRRGEIQHRMQRKVLYRLK

- binding [5]: binds
- binding [3]: binds
B5: MCM6 (protein, UniProt Q14566 1-821)
chain: MDLAAAAEPGAGSQHLEVRDEVAEKCQKLFLDFLEEFQSSDGEIKYLQLAEELIRPERNTLVVSFVDLEQFNQQLSTTIQEEFYRVYPYLCRALKTFVKDRKEIPLAKDFYVAFQDLPTRHKIRELTSSRIGLLTRISGQVVRTHPVHPELVSGTFLCLDCQTVIRDVEQQFKYTQPNICRNPVCANRRRFLLDTNKSRFVDFQKVRIQETQAELPRGSIPRSLEVILRAEAVESAQAGDKCDFTGTLIVVPDVSKLSTPGARAETNSRVSGVDGYETEGIRGLRALGVRDLSYRLVFLACCVAPTNPRFGGKELRDEEQTAESIKNQMTVKEWEKVFEMSQDKNLYHNLCTSLFPTIHGNDEVKRGVLLMLFGGVPKTTGEGTSLRGDINVCIVGDPSTAKSQFLKHVEEFSPRAVYTSGKASSAAGLTAAVVRDEESHEFVIEAGALMLADNGVCCIDEFDKMDVRDQVAIHEAMEQQTISITKAGVKATLNARTSILAAANPISGHYDRSKSLKQNINLSAPIMSRFDLFFILVDECNEVTDYAIARRIVDLHSRIEESIDRVYSLDDIRRYLLFARQFKPKISKESEDFIVEQYKHLRQRDGSGVTKSSWRITVRQLESMIRLSEAMARMHCCDEVQPKHVKEAFRLLNKSIIRVETPDVNLDQEEEIQMEVDEGAGGINGHADSPAPVNGINGYNEDINQESAPKASLRLGFSEYCRISNLIVLHLRKVEEEEDESALKRSELVNWYLKEIESEIDSEEELINKKRIIEKVIHRLTHYDHVLIELTQAGLKGSTEGSESYEEDPYLVVNPNYLLED
